Experimental data as given in patent publication US20100299778A1, “NUCLEOTIDE SEQUENCE ENCODING ARTEMISINIC ALDEHYDE DOUBLE BOND REDUCTASE, ARTEMISINIC ALDEHYDE DOUBLE BOND REDUCTASE AND USES THEREOF” (National Research Council of Canada, priority 2007, published 2010).
At least one structure is not confirmed: it was looked up by name or label, or the drawing left a doubt.

Chains of the proteins cited; added tags and fusions are not shown. A line that says so, or that is headed by a name, gives the form on record, which may keep a tag or linker.
UniProt C5H429, other isoform, or with tags, fused parts or gaps N16K/A226G/L231G: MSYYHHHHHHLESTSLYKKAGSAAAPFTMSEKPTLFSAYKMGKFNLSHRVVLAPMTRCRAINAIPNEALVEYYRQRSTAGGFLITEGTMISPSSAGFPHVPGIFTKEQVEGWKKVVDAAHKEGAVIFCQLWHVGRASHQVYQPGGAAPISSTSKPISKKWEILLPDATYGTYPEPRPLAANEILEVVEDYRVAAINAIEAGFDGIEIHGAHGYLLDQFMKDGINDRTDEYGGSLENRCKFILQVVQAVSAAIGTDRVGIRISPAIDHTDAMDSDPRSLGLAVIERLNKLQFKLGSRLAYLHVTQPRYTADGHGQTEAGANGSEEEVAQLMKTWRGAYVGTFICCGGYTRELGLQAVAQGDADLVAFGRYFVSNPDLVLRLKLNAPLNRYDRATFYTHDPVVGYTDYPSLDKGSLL

Molecular target: T1, recombinant AaDBR2 (artemisinic aldehyde double bond reductase) (Artemisia annua, UniProt C5H429, A226G/L231G/N16K)
T1 construct: This ORF encodes a 415-amino acid protein with a predicted molecular mass of 45.6 kDa; made in house; host or cells: E. coli Rosetta 2(DE3)
Experiment: Apparent kinetic parameters of purified recombinant AaDBR2
Format: biochemical
Experimental: For comparison of the catalytic properties of AaDBR2 against other substrates, reaction mixtures were pre-warmed to 30° C., and reactions were initiated by addition of AaDBR2. The pH optimum of the purified AaDBR2 was determined to be 7.5 in assay that included one of three 50 mM buffers (MES, HEPES, and Tris-HCl) adjusted to between pH 5.5 and 9.0 in 0.5-unit intervals and 0.5 mM artemisinic aldehyde and 0.48 μg of purified recombinant AaDBR2. Apparent kinetic parameters were determined under conditions that limited conversion to less than 10% as follows. Concentrations of artemisinic aldehyde (6-250 μM, 0.24 μg of AaDBR2, 2 min), 2-cyclohexen-1-one (80-10,000 μM, 0.48 μg of AaDBR2, 10 min), and (+)-carvone (20-5000 μM, 0.48 μg AaDBR2, 10 min) were varied in the presence of 1 mM NADPH. To assess cofactor specificity, concentrations of NADPH (10-640 μM, 0.48 μg of AaDBR2, 2 min) and NADH (0.2-13 mM, 1.9 μg of AaDBR2, 2 min) were varied in the presence of 0.5 mM artemisinic aldehyde. The ethyl acetate extracts from triplicate reaction mixtures were directly analyzed by GC/MS. Octadecane was used as an internal standard to quantify the products formed from the reactions using response factors determined using standards for each enzyme product. Km and kcat values were determined by nonlinear regression analysis using GraphPad™ software (GraphPad™ Software Inc., San Diego, Calif.).

[1] = substrate varied in the presence of 1 mM NADPH, 30° C.
[2] = cofactor varied in the presence of 0.5 mM artemisinic aldehyde

C=C(C=O)[C@@H]1CC[C@@H](C)[C@@H]2CCC(C)=C[C@@H]21 [artemisinic aldehyde]
kcat/Km [1]: 140000 M⁻¹ s⁻¹

NC(=O)C1=CN([C@@H]2O[C@H](COP(=O)(O)OP(=O)(O)OC[C@H]3O[C@@H](n4cnc5c(N)ncnc54)[C@H](OP(=O)(O)O)[C@@H]3O)[C@@H](O)[C@H]2O)C=CC1 [NADPH]
kcat/Km [2]: 26000 M⁻¹ s⁻¹

C=C(C)[C@H]1CC=C(C)C(=O)C1 [(+)-carvone, (+)-Carvone]
kcat/Km [1]: 1300 M⁻¹ s⁻¹

NC(=O)C1=CN([C@@H]2O[C@H](COP(=O)(O)OP(=O)(O)OC[C@H]3O[C@@H](n4cnc5c(N)ncnc54)[C@H](O)[C@@H]3O)[C@@H](O)[C@H]2O)C=CC1 [NADH]
kcat/Km [2]: 1700 M⁻¹ s⁻¹
